Common to all, as to assay: split reporter
Test [1] concerns the target T1, CAMTA3 (split-LUC fusion) (Arabidopsis thaliana) (UniProt Q8GSA7).
T1 sequence: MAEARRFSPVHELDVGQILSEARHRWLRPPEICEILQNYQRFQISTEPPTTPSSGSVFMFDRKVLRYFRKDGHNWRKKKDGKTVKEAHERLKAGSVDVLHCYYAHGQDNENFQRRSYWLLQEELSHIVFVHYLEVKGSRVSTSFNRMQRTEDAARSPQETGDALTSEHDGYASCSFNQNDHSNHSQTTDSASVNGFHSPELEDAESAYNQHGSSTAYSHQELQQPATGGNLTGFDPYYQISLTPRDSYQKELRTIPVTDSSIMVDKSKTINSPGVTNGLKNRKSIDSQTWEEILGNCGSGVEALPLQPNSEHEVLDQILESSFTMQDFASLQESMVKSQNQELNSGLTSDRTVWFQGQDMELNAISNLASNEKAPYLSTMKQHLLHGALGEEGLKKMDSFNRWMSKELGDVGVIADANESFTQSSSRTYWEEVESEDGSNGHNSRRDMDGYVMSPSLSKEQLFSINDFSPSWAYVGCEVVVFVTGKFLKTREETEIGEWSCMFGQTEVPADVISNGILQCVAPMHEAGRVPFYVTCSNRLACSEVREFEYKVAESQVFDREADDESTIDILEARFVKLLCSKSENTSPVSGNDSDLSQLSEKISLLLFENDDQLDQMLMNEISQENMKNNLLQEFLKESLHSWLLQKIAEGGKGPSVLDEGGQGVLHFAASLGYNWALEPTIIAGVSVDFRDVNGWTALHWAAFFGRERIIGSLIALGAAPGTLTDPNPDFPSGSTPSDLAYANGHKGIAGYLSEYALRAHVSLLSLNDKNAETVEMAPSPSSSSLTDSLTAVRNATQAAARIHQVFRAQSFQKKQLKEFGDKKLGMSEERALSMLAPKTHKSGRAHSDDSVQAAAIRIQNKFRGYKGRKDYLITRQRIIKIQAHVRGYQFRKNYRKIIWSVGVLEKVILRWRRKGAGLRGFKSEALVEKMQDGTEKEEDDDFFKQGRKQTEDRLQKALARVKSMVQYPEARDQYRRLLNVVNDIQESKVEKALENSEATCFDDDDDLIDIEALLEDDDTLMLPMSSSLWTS

The target in test [2] is T2, CAMTA3 (BiFC fusion used against SR1IP1) (Arabidopsis thaliana) (UniProt Q8GSA7).
T2 sequence: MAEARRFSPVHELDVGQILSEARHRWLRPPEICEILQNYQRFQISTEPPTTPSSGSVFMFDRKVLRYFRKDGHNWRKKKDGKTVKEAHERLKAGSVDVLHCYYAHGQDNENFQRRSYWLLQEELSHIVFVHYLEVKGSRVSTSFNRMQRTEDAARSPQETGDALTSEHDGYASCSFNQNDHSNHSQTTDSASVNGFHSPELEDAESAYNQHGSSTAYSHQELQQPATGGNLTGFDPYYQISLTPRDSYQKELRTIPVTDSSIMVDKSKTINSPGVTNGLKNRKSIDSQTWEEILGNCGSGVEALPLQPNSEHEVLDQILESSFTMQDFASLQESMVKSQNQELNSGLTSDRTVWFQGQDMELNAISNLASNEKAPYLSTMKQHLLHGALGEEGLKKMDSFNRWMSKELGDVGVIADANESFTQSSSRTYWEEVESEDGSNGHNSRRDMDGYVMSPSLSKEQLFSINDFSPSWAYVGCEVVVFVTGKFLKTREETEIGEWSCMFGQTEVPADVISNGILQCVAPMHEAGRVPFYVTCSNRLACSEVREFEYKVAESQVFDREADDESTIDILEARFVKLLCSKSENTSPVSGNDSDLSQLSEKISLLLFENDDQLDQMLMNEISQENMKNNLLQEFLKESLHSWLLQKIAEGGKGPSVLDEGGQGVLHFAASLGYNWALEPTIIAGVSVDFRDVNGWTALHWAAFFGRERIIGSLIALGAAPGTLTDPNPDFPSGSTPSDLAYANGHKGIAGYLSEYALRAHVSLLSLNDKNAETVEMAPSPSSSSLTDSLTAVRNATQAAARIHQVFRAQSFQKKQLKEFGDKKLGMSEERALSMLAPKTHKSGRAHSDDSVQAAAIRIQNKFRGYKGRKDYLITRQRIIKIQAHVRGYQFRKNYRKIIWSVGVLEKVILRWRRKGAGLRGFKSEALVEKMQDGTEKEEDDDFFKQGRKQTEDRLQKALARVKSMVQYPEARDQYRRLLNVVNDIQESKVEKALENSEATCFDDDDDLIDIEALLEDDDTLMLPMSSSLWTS

Test [3] concerns the target T3, calmodulin-binding transcription activator 3 (CAMTA3) fused with a C-terminal fragment of YFP (cYFP) (Arabidopsis thaliana) (UniProt Q8GSA7).
T3 sequence: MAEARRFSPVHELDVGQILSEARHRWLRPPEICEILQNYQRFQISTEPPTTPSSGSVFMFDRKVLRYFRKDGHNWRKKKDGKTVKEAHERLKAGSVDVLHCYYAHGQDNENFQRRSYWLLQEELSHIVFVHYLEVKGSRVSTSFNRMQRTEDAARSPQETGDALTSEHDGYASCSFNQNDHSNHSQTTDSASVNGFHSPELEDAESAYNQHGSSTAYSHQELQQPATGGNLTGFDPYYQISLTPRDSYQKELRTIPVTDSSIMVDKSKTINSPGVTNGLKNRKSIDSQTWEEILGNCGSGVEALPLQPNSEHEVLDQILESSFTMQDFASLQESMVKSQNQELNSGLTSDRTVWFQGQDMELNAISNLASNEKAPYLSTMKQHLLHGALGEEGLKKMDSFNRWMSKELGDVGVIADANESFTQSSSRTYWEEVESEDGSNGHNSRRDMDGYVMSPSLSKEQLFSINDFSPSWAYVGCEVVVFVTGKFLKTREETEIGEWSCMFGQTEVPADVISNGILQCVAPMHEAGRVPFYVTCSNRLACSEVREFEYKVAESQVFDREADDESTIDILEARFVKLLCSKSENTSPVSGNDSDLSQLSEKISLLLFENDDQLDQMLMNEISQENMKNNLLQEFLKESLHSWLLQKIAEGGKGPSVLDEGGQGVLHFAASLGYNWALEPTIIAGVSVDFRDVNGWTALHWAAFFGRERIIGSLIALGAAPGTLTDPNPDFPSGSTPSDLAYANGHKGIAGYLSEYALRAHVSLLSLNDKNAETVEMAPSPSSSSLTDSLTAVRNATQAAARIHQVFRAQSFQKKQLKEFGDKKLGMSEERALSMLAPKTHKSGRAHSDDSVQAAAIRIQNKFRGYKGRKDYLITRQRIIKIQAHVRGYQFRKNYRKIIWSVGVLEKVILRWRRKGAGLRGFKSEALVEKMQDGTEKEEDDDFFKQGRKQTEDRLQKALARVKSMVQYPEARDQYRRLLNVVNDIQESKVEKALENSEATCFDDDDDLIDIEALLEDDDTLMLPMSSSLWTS

No constants are given. Whether binding was seen depends on the method and setting. Binding seen in cells or lysates may run through a third protein. Tags and fused reporters may be left off the sequences shown.

B1: SR1IP1 (split-LUC fusion) (protein, UniProt Q66GP0 1-604)
chain: MSAKKKDLLSSAMKRTSEWISSQEVSSDVTVHVGEASFSLHKFPLMSKCGFIKKLVSESSKDSDSTVIKIPDIPGGSEAFELAAKFCYGINFDMSTENIAMLRCAAEYLEMTEEHSVENLVVRAEAYLNEVALKSLSSSITVLHKSEKLLPIAERVKLVSRCIDAIAYMTCQESHFCSPSSSNSGNNEVVVQQQSKQPVVDWWAEDLTVLRIDSFQRVLIAMMARGFKQYGLGPVLMLYAQKSLRGLEIFGKGMKKIEPKQEHEKRVILETIVSLLPREKNAMSVSFLSMLLRAAIFLETTVACRLDLENRMGLQLGQAVLDDLLIPSYSFTGDHSMFDTDTVQRILMNYLEFEVEGVRLSNNGVDLAGDMERVGKLLENYMAEIASDRNVSLQKFIGLAELIPEQSRVTEDGMYRAVDIYLKAHPNMSDVERKKVCSLMDCQKLSREACAHAAQNDRLPVQTIVQVLYYEQQRLRGEVTNDSDSPAPPPPQPAAVLPPKLSSYTDELSKLKRENQDLKLELLKMKMKLKEFEKESEKKTSSSTISTNPSSPISTASTGKPPLPRKSFINSVSKKLGKLNPFSITPYNGRGRTKPPKDRRHSIS
Regarding B1, the binding result in test [1] is recorded as “no binding”.

B2: SR1IP1 (BiFC fusion) (protein, UniProt Q66GP0 1-604)
chain: MSAKKKDLLSSAMKRTSEWISSQEVSSDVTVHVGEASFSLHKFPLMSKCGFIKKLVSESSKDSDSTVIKIPDIPGGSEAFELAAKFCYGINFDMSTENIAMLRCAAEYLEMTEEHSVENLVVRAEAYLNEVALKSLSSSITVLHKSEKLLPIAERVKLVSRCIDAIAYMTCQESHFCSPSSSNSGNNEVVVQQQSKQPVVDWWAEDLTVLRIDSFQRVLIAMMARGFKQYGLGPVLMLYAQKSLRGLEIFGKGMKKIEPKQEHEKRVILETIVSLLPREKNAMSVSFLSMLLRAAIFLETTVACRLDLENRMGLQLGQAVLDDLLIPSYSFTGDHSMFDTDTVQRILMNYLEFEVEGVRLSNNGVDLAGDMERVGKLLENYMAEIASDRNVSLQKFIGLAELIPEQSRVTEDGMYRAVDIYLKAHPNMSDVERKKVCSLMDCQKLSREACAHAAQNDRLPVQTIVQVLYYEQQRLRGEVTNDSDSPAPPPPQPAAVLPPKLSSYTDELSKLKRENQDLKLELLKMKMKLKEFEKESEKKTSSSTISTNPSSPISTASTGKPPLPRKSFINSVSKKLGKLNPFSITPYNGRGRTKPPKDRRHSIS
Regarding B2, the binding entry in test [2] is recorded as “no binding”.

B3: MPK8-nYFP fusion (enzyme, UniProt Q9LM33 1-589)
chain: MGGGGNLVDGVRRWLFQRPSSSSSSSSSNNNNNNHEQPIFNSSSFSSSSNPNHSANSGELIIEEDLDFSGLTLINVPKRNHLPMDPHKKGETEFFTEYGEANRYQIQEVVGKGSYGVVASAVDSHTGERVAIKKINDVFEHVSDATRILREIKLLRLLRHPDVVEIKHIMLPPSRREFRDIYVVFELMESDLHQVIKANDDLTPEHYQFFLYQLLRGLKYVHAANVFHRDLKPKNILANADCKLKICDFGLARVSFNDAPTAIFWTDYVATRWYRAPELCGSFFSKYTPAIDIWSVGCIFAEMLLGKPLFPGKNVVHQLDLMTDFLGTPPPESISRIRNEKARRYLSSMRKKQPVPFSHKFPKADPLALRLLERLLAFDPKDRASAEDALADPYFSGLSNSEREPTTQPISKLEFDFERKKLVKDDVRELIYREILEYHPQMLEEYLRGGDQLSFMYPSGVDRFKRQFAHLEENQGKPGAAGGGRSTALHRHHASLPRERVPAPNGETAEESSDVERRAAAAVASTLESEEADNGGGYSARNLMKSASISGSKCIGVQSKTDKEDTIAEEEDNETVAELTDKVASLHNS
As for B3, in test [3], the binding entry was “no binding”.

The values above are taken from article doi:10.1101/825323.
